Among the data in publication PMC11169566 are binding values, retold here.

Chains of the proteins cited; added tags and fusions are not shown.
UniProt Q99942: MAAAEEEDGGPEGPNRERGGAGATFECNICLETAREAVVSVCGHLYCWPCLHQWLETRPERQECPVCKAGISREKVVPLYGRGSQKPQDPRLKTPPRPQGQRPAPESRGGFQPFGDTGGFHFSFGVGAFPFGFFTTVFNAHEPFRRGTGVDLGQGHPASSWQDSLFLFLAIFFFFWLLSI
UniProt Q96BY7: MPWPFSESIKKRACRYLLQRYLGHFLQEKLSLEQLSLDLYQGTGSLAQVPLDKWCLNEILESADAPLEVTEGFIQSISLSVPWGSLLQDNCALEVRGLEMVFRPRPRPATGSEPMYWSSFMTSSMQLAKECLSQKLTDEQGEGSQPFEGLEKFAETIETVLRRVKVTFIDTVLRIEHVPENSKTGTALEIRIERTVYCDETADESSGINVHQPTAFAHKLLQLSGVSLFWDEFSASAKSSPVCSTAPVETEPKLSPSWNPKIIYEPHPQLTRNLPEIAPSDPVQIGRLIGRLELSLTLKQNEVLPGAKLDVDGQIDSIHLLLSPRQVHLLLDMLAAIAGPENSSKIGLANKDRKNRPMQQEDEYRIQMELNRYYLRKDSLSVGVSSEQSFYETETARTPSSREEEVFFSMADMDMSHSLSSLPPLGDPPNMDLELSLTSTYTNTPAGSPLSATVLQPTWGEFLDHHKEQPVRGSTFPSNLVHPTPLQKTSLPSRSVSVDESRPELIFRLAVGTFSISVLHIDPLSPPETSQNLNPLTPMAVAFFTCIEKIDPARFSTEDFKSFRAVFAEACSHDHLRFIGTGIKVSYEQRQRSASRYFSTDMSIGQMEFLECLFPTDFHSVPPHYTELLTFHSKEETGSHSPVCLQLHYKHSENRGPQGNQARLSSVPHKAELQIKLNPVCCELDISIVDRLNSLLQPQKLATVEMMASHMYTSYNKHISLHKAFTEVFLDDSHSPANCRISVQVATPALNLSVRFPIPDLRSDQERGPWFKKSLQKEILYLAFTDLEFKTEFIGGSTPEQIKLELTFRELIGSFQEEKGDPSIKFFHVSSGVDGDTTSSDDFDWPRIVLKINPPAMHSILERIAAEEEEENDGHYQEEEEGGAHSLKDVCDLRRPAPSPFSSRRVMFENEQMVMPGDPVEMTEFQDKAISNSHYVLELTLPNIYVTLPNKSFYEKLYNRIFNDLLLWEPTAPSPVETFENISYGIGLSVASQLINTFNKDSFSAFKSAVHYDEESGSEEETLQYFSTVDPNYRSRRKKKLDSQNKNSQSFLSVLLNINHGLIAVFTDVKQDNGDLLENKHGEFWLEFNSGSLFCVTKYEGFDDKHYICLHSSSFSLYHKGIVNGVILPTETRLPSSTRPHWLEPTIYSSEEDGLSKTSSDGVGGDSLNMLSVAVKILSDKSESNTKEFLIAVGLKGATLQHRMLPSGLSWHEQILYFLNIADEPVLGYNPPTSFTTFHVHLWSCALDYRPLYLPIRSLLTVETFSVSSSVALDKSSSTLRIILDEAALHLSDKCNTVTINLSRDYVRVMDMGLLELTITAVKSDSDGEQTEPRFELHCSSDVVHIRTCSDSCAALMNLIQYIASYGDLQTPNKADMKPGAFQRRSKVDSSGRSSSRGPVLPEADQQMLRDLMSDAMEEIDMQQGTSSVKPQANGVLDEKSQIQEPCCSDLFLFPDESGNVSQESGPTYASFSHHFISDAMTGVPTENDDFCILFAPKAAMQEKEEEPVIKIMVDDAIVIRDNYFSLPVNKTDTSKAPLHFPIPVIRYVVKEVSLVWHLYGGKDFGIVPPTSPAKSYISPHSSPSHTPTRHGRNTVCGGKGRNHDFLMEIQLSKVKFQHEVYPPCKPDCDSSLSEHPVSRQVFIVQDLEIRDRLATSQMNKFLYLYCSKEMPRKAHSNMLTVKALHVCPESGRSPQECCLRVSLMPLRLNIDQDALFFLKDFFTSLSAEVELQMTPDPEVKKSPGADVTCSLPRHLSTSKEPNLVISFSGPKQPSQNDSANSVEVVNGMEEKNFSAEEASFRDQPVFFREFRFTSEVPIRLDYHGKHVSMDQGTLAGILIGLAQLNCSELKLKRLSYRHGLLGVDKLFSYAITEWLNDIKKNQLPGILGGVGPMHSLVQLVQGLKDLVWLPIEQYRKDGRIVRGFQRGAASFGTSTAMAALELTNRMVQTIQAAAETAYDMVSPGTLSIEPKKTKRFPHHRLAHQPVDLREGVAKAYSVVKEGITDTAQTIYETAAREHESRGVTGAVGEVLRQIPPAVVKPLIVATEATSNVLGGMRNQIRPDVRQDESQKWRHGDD

Results are given in words; binding and its absence hold for the method and conditions named. In cells and extracts the contact can be indirect. Some entries that bind do so weakly or less than the wild type.

One experiment concerns the target GST-tagged RNF5 (UniProt Q99942). The experiment can be described thus: pull-down; 'in vitro binding assay' with GST-tagged RNF5 and its truncations; no further conditions told.
The target in experiment [1] is ATG2B (human (in human gastric cancer cell lines)) (UniProt Q96BY7). Kind of experiment: co-IP; gastric cancer cells; 'mutual' immunoprecipitation with western blotting; also done after circDHX8 upregulation and after nicotinamide (NAM) treatment, each of which lessened the interaction. (In general: A western blot detects proteins with antibodies after separation by electrophoresis.)

Regarding “ATG2B (in vitro binding assay) (from UniProt Q96BY7 1-2078)”, in the experiment with GST-tagged RNF5, the binding result is reported as “binds”.

For “E3 ubiquitin-protein ligase RNF5 (from UniProt Q99942 1-180) (enzyme)”, the binding entry in experiment [1] is listed as “binds”.
